Measured data: PubChem BioAssay AID743121 (NCATS, 2013)
Here is one part, drawn at random, of about 26,000 deposited reagents. 167 of all reagents (0.63%) were called active. 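Calls are per gene from RSA p-values that are not deposited; an individual active-marked siRNA can sensitise only weakly.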 Entries without a mark were called inactive. The numbers tell different reagents against one gene apart. Not all columns of the deposit are shown.

Assay: 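Genes whose silencing strengthens cell killing by camptothecin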 (primary screen)
Cell system: MDA-MB-231 cells, a human breast cancer line
Reagents: single siRNA against human genes, 20 nM siRNA (0.8 pmol per well)
Time to read-out: 120 h (drug added 48 h after transfection, read 72 h later)
Conditions: camptothecin 20 nM (about EC30) for 72 h; vehicle 0.1% DMSO in parallel plates
Read-out: 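Cell viability by ATP luminescence (CellTiter-Glo) as % of non-targeting siRNA wells, and the log2 ratio of viability without drug over viability with camptothecin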
Reading the numbers: log2 vehicle/camptothecin viability: higher = stronger sensitisation to camptothecin
Active means: 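Active genes have an RSA gene-level p-value below 0.001, computed from the ratios of their separate siRNAs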

| gene knocked down | reagent no. | log2 vehicle/camptothecin viability |
| --- | --- | --- |
| STARD9 | 1 | 0.0878 |
| STARD9 | 2 | 0.251 |
| STARD9 | 3 | -0.0366 |
| STARD9 | 4 | -0.0518 |
| H2AX | 1 | -0.638 |
| H2AX | 2 | -0.364 |
| H2AX | 3 | -0.204 |
| PAPPA | 1 | -0.343 |
| PAPPA | 2 | -0.0586 |
| PAPPA | 3 | -0.226 |
| PAPPA | 4 | -0.297 |
| OR8D2 | 1 | 0.124 |
| OR8D2 | 2 | -0.605 |
| OR8D2 | 3 | -0.173 |
| OR8D2 | 4 | -0.311 |
| TNFSF14 | 1 | -0.107 |
| TNFSF14 | 2 | -0.446 |
| TNFSF14 | 3 | -0.19 |
| TNFSF14 | 4 | -0.381 |
| YWHAEP1 | 1 | 0.149 |
| KCNT1 | 1 | 0.0689 |
| KCNT1 | 2 | -0.415 |
| KCNT1 | 3 | 0.216 |
| CXADR | 1 | -0.0933 |
| CXADR | 2 | 0.1 |
| CXADR | 3 | 0.17 |
| CXADR | 4 | 0.0265 |
| DBH | 1 | 0.112 |
| DBH | 2 | -0.803 |
| DBH | 3 | -0.136 |
| NR6A1 | 1 | 0.468 |
| NR6A1 | 2 | 0.2 |
| NR6A1 | 3 | -0.00883 |
| NR6A1 | 4 | -0.0797 |
| SERPINB9 | 1 | -0.109 |
| SERPINB9 | 2 | -0.236 |
| SERPINB9 | 3 | 0.163 |
| SERPINB9 | 4 | -0.27 |
| PROKR1 | 1 | -0.411 |
| PROKR1 | 2 | -0.365 |
| PROKR1 | 3 | -0.127 |
| PROKR1 | 4 | -0.208 |
| EFNA5 | 1 | -0.18 |
| EFNA5 | 2 | -0.391 |
| EFNA5 | 3 | 0.0161 |
| EFNA5 | 4 | 0.21 |
| SFTPD | 1 | -0.46 |
| SFTPD | 2 | -0.237 |
| SFTPD | 3 | -0.495 |
| SFTPD | 4 | -0.0791 |
| LRWD1 | 1 | -0.242 |
| LRWD1 | 2 | -0.237 |
| LRWD1 | 3 | -0.199 |
| LRWD1 | 4 | -0.329 |
| OSGEPL1 | 1 | -0.149 |
| OSGEPL1 | 2 | -0.289 |
| OSGEPL1 | 3 | -0.068 |
| OSGEPL1 | 4 | -0.184 |
| HOMER3 | 1 | -0.392 |
| HOMER3 | 2 | 0.0348 |
| HOMER3 | 3 | -0.129 |
| ABCD2 | 1 | -0.103 |
| ABCD2 | 2 | -0.21 |
| ABCD2 | 3 | -0.286 |
| ABCD2 | 4 | -0.811 |
| RNF166 | 1 | -0.21 |
| RNF166 | 2 | 0.417 |
| RNF166 | 3 | -0.024 |
| RNF166 | 4 | -0.11 |
